Measured values as given in US8911805B2, “Calcium preparation and method of production thereof” (Toyo Suisan Kaisha, Ltd., priority 2010, dated 2014).

Assay: Sensory evaluation of bitterness of calcium preparation
Conditions: calcium 150 mg/100 mL in salt solution

CC(O)C(=O)[O-].CC(O)C(=O)[O-].[Ca+2] (centres unmarked) [calcium lactate]
bitter taste in a solution containing salts: a strong bitter taste is noted

calcium gluconate
bitter taste in a solution containing salts: a strong bitter taste is noted
